Data as given in PubChem BioAssay AID1508588 (Peter MacCallum Cancer Centre, 2020).

Screen: 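Genome-wide search for knock-downs that heighten vemurafenib action in melanoma cells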 (primary screen)
Cells: human WM266.4 melanoma cells (BRAF V600 mutant)
Knock-down reagent: siRNA pool against human genes, 40 nM
Time to read-out: 96 h from transfection to read-out
Conditions: vemurafenib 300 nM (about IC25), added 48 h after transfection, for 48 h; comparison arm got DMSO vehicle only
Read-out: 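Cell gain (DAPI nuclei at end minus before drug, mean of two replicates) and medium lactate by absorbance per cell, both as ratio to non-targeting siRNA, also grouped into fold-change classes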
Direction: cell gain with vemurafenib: higher = more cell gain than with non-targeting siRNA; lactate per cell with vemurafenib: higher = more lactate made per cell
Call rule: 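Enhancement is called by pairing each knock-down's vehicle-arm and drug-arm fold-change classes for viability or glycolysis; which class combinations qualify is not given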
Calls: active = enhances vemurafenib effect; inactive = no enhancement seen
The whole screen tested about 18,000 reagents; this is an unselected part. Over the whole deposit, 790 (4.4%) were called active. 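Calls rest on a combination of fold-change classes in drug and vehicle arms, not all shown here.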 Entries without a mark were called inactive. Reagent sequences are not shown.

Which result is listed for FZD5 (frizzled class receptor 5)?
cell gain with vemurafenib: 1.07; lactate per cell with vemurafenib: 1.24

What is on record for PTPRM (protein tyrosine phosphatase receptor type M)?
cell gain with vemurafenib: 0.64; lactate per cell with vemurafenib: 0.51

Which result is listed for KRT80 (keratin 80)?
cell gain with vemurafenib: 0.09; lactate per cell with vemurafenib: 0.22

Which result is listed for AVP (arginine vasopressin)?
cell gain with vemurafenib: 0; lactate per cell with vemurafenib: 1.62

What is on record for ARHGDIB (Rho GDP dissociation inhibitor beta)?
cell gain with vemurafenib: 0.99; lactate per cell with vemurafenib: 0.7

What is on record for PNPLA1 (patatin like domain 1, omega-hydroxyceramide transacylase)?
cell gain with vemurafenib: 0.76; lactate per cell with vemurafenib: 0.88

Which result is listed for NFAT5 (nuclear factor of activated T cells 5)?
cell gain with vemurafenib: 0.2; lactate per cell with vemurafenib: 1.16

With LPL (lipoprotein lipase), how do the results read?
cell gain with vemurafenib: 0.58; lactate per cell with vemurafenib: 0.28

For ABCF2 (ATP binding cassette subfamily F member 2), what was measured?
cell gain with vemurafenib: 0.3; lactate per cell with vemurafenib: 0.52

How did the screen score MITD1 (microtubule interacting and trafficking domain containing 1)?
cell gain with vemurafenib: 0.74; lactate per cell with vemurafenib: 0.94

Which result is listed for SGCB (sarcoglycan beta)?
cell gain with vemurafenib: 0.6; lactate per cell with vemurafenib: 1.19

With PIM3 (Pim-3 proto-oncogene, serine/threonine kinase), how do the results read?
cell gain with vemurafenib: 0.63; lactate per cell with vemurafenib: 1.48

With MYH7 (myosin heavy chain 7), what does the deposit list?
cell gain with vemurafenib: 0.74; lactate per cell with vemurafenib: 0.68

For TRAPPC8 (trafficking protein particle complex subunit 8), what was measured?
cell gain with vemurafenib: 0.4 (active); lactate per cell with vemurafenib: 0.42

For NOC2L (NOC2 like nucleolar associated transcriptional repressor), what does the deposit list?
cell gain with vemurafenib: 0.87; lactate per cell with vemurafenib: 1.07

With HDIP1 (HDAC and MIER1 interacting protein 1), what does the deposit list?
cell gain with vemurafenib: 0.68; lactate per cell with vemurafenib: 1.25
